# In PubChem BioAssay AID272 (DTP/NCI, 2004):
# The list is a part of this screen's results and no random one: it is rich in T/C values a quarter to a half above the control, in often repeated tests (any T/C) and in doses without a T/C. Other doses and runs of a compound stand elsewhere. T/C is the treated group as % of the vehicle group. Some doses have a count of surviving animals in place of a T/C: the source holds a T/C of zero for them, seemingly a mark for toxic or unscored doses. Some doses without a T/C left all or most animals alive at the check, yet need not have been tolerated: the source hardly ever lists a survival T/C far under the control, and the zero likely stands for such cases as well. Counts of survivors are from the toxicity check (mostly the fifth day) where no day follows; animals may have died later. Schedules are NCI's codes, read here as Q, the interval in days (D) or hours (H), X, the number of doses. Some entries hold several experiments; their values stand side by side, smallest first. Some schedules carry Z or #; the key to these is not given. Signs of the kind (2×) count equal records among those shown.
# Test system: Lewis lung carcinoma i.m., BDF1 mice, T/C %
# Test: NCI In Vivo Anticancer Drug Screen. Data for tumor model Lewis Lung Carcinoma (intramuscular) in B6D2F1 (BDF1) mice
# Procedure, shortened: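 Mice carrying transplantable tumours received test compound. Survival or tumour size was recorded and expressed as the treated-group value (T) divided by the vehicle-treated control-group value (C).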
# [1] = T/C endpoint: median survival time, dose: 20.0 mg/kg/injection, schedule: Q01DX011 (ip), vehicle: saline with Tween-80, higher T/C = longer survival
# [2] = T/C endpoint: median survival time, dose: 20.0 mg/kg/injection, schedule: Q01DX011 (ip), vehicle: saline, higher T/C = longer survival
# [3] = T/C endpoint: median survival time, dose: 40.0 mg/kg/injection, schedule: Q01DX011 (ip), vehicle: saline with Tween-80, higher T/C = longer survival
# [4] = T/C endpoint: median survival time, dose: 40.0 mg/kg/injection, schedule: Q01DX011 (ip), vehicle: saline, higher T/C = longer survival
# [5] = T/C endpoint: median survival time, dose: 80.0 mg/kg/injection, schedule: Q01DX011 (ip), vehicle: saline with Tween-80, higher T/C = longer survival
# [6] = T/C endpoint: mean tumor weight, dose: 20.0 mg/kg/injection, schedule: Q01DX011 (ip), vehicle: saline, higher T/C = larger tumour
# [7] = T/C endpoint: median survival time, dose: 200.0 mg/kg/injection, schedule: Q01DX011 (ip), vehicle: saline with Tween-80, higher T/C = longer survival
smiles,measurement,setting,value
Cc1[nH]c(=O)[nH]c(=O)c1N(CCF)CCCl,survivor count,"T/C endpoint: median survival time, dose: 5.0 mg/kg/injection, schedule: Q01DX011 (ip), vehicle: saline with Tween-80, higher T/C = longer survival",8 of 8
same,survivor count,"T/C endpoint: median survival time, dose: 10.0 mg/kg/injection, schedule: Q01DX011 (ip), vehicle: saline with Tween-80, higher T/C = longer survival",8 of 8
same,survivor count,[1],7 of 8
same,survivor count,[2],7 of 8
same,survivor count,[3],1 of 8 and 6 of 8
same,survivor count,[4],0 of 8
same,survivor count,[5],0 of 8 (2×)
Cc1c[n+]2c3ccccc3c3ccccc3c2s1,survivor count,[6],4 of 8
same,survivor count,"T/C endpoint: mean tumor weight, dose: 40.0 mg/kg/injection, schedule: Q01DX011 (ip), vehicle: saline, higher T/C = larger tumour",3 of 8
same,survivor count,[1],4 of 8
same,survivor count,[3],3 of 8
same,survivor count,[5],0 of 8
CC(=O)NNC(=O)c1ccccn1,survivor count,"T/C endpoint: median survival time, dose: 25.0 mg/kg/injection, schedule: Q01DX011 (ip), vehicle: water, higher T/C = longer survival",10 of 10
same,survivor count,"T/C endpoint: median survival time, dose: 25.0 mg/kg/injection, schedule: Q01DX012 (ip), vehicle: water, higher T/C = longer survival",5 of 10
same,survivor count,"T/C endpoint: median survival time, dose: 32.0 mg/kg/injection, schedule: Q01DX Z (ip), vehicle: other, higher T/C = longer survival",8 of 8
same,survivor count,"T/C endpoint: median survival time, dose: 50.0 mg/kg/injection, schedule: Q01DX011 (ip), vehicle: water, higher T/C = longer survival",8 of 10
same,survivor count,"T/C endpoint: median survival time, dose: 50.0 mg/kg/injection, schedule: Q01DX012 (ip), vehicle: water, higher T/C = longer survival",2 of 10
same,survivor count,"T/C endpoint: median survival time, dose: 64.0 mg/kg/injection, schedule: Q01DX Z (ip), vehicle: other, higher T/C = longer survival",8 of 8
same,survivor count,"T/C endpoint: median survival time, dose: 100.0 mg/kg/injection, schedule: Q01DX011 (ip), vehicle: water, higher T/C = longer survival",10 of 10
same,survivor count,"T/C endpoint: median survival time, dose: 100.0 mg/kg/injection, schedule: Q01DX012 (ip), vehicle: water, higher T/C = longer survival",10 of 10
same,survivor count,"T/C endpoint: median survival time, dose: 128.0 mg/kg/injection, schedule: Q01DX Z (ip), vehicle: other, higher T/C = longer survival",4 of 8 and 7 of 8
same,survivor count,"T/C endpoint: median survival time, dose: 200.0 mg/kg/injection, schedule: Q01DX011 (ip), vehicle: water, higher T/C = longer survival",5 of 10
same,survivor count,"T/C endpoint: median survival time, dose: 200.0 mg/kg/injection, schedule: Q01DX012 (ip), vehicle: water, higher T/C = longer survival",1 of 10
same,survivor count,"T/C endpoint: median survival time, dose: 400.0 mg/kg/injection, schedule: Q01DX011 (ip), vehicle: water, higher T/C = longer survival",0 of 10
same,survivor count,"T/C endpoint: median survival time, dose: 400.0 mg/kg/injection, schedule: Q01DX012 (ip), vehicle: water, higher T/C = longer survival",0 of 10
Nc1ncnc2c1ccn2C1OC(CO)C(O)C1O (configuration not stated),survivor count,"T/C endpoint: median survival time, dose: 0.25 mg/kg/injection, schedule: Q01DX011 (ip), vehicle: carboxymethylcellulose (CMC), higher T/C = longer survival",10 of 10
same,survivor count,"T/C endpoint: median survival time, dose: 1.0 mg/kg/injection, schedule: Q01DX009 (ip), vehicle: Klucel (hydroxypropylcellulose) (HPC), higher T/C = longer survival",10 of 10
same,survivor count,"T/C endpoint: median survival time, dose: 1.0 mg/kg/injection, schedule: Q01DX011 (ip), vehicle: carboxymethylcellulose (CMC), higher T/C = longer survival",2 of 10 and 10 of 10
same,survivor count,"T/C endpoint: median survival time, dose: 1.5 mg/kg/injection, schedule: Q01DX011 (ip), vehicle: steroid suspending solution, higher T/C = longer survival",8 of 8
same,survivor count,"T/C endpoint: median survival time, dose: 2.0 mg/kg/injection, schedule: Q01DX009 (ip), vehicle: Klucel (hydroxypropylcellulose) (HPC), higher T/C = longer survival",10 of 10
same,survivor count,"T/C endpoint: median survival time, dose: 2.0 mg/kg/injection, schedule: Q01DX011 (ip), vehicle: carboxymethylcellulose (CMC), higher T/C = longer survival",0 of 10 and 2 of 10
same,survivor count,"T/C endpoint: median survival time, dose: 4.0 mg/kg/injection, schedule: Q01DX009 (ip), vehicle: Klucel (hydroxypropylcellulose) (HPC), higher T/C = longer survival",10 of 10
same,survivor count,"T/C endpoint: median survival time, dose: 4.0 mg/kg/injection, schedule: Q01DX011 (ip), vehicle: carboxymethylcellulose (CMC), higher T/C = longer survival",0 of 10
same,survivor count,"T/C endpoint: median survival time, dose: 8.0 mg/kg/injection, schedule: Q01DX009 (ip), vehicle: Klucel (hydroxypropylcellulose) (HPC), higher T/C = longer survival",6 of 10
same,survivor count,"T/C endpoint: median survival time, dose: 8.0 mg/kg/injection, schedule: Q01DX011 (ip), vehicle: carboxymethylcellulose (CMC), higher T/C = longer survival",0 of 10
same,survivor count,"T/C endpoint: median survival time, dose: 16.0 mg/kg/injection, schedule: Q01DX009 (ip), vehicle: Klucel (hydroxypropylcellulose) (HPC), higher T/C = longer survival",1 of 10
same,survivor count,"T/C endpoint: median survival time, dose: 16.0 mg/kg/injection, schedule: Q01DX011 (ip), vehicle: carboxymethylcellulose (CMC), higher T/C = longer survival",0 of 10
same,survivor count,"T/C endpoint: median tumor weight (est.), dose: 1.5 mg/kg/injection, schedule: Q01DX011 (ip), vehicle: steroid suspending solution, higher T/C = larger tumour",1 of 8
CC(=O)O[C@]1(C(C)=O)CC[C@H]2[C@@H]3C[C@H](C)C4=CC(=O)CC[C@]4(C)[C@H]3CC[C@@]21C,survivor count,"T/C endpoint: median survival time, dose: 800.0 mg/kg/injection, schedule: Q01DX011 (ip), vehicle: Klucel (hydroxypropylcellulose) (HPC), higher T/C = longer survival",8 of 10 and 9 of 10
O=[N+]([O-])c1ccc(N/N=C/CC(O)CO)c([N+](=O)[O-])c1 (configuration not stated),survivor count,[7],6 of 8
same,survivor count,"T/C endpoint: median survival time, dose: 400.0 mg/kg/injection, schedule: Q01DX011 (ip), vehicle: saline with Tween-80, higher T/C = longer survival",1 of 8
CC1(C)N=C(N)N=C(N)N1c1ccc(CCCCc2ccc(Cl)cc2Cl)cc1,survivor count,[6],3 of 8
same,survivor count,[2],3 of 8
COc1c2c([n+](C)c3c(OC)cccc13)OC(C(C)C)C2 (configuration not stated),survivor count,"T/C endpoint: mean tumor weight (est.), dose: 1.0 mg/kg/injection, schedule: Q01DX011 (ip), vehicle: saline, higher T/C = larger tumour",5 of 8
same,survivor count,"T/C endpoint: median survival time, dose: 1.0 mg/kg/injection, schedule: Q01DX011 (ip), vehicle: saline, higher T/C = longer survival",5 of 8
same,survivor count,"T/C endpoint: median survival time, dose: 2.0 mg/kg/injection, schedule: Q01DX011 (ip), vehicle: saline, higher T/C = longer survival",0 of 8
Clc1nc2ccccc2nc1CI,survivor count,"T/C endpoint: mean tumor weight (est.), dose: 10.0 mg/kg/injection, schedule: Q01DX011 (ip), vehicle: saline, higher T/C = larger tumour",5 of 8
same,survivor count,"T/C endpoint: median survival time, dose: 10.0 mg/kg/injection, schedule: Q01DX011 (ip), vehicle: saline, higher T/C = longer survival",5 of 8
same,survivor count,[2],2 of 8
same,survivor count,[4],0 of 8
COC1=C(N)C(=O)c2nc(-c3nc(C(=O)O)c(C)c(-c4ccc(OC)c(OC)c4O)c3N)ccc2C1=O,survivor count,"T/C endpoint: median survival time, dose: 0.1 mg/kg/injection, schedule: Q01DX009 (ip), vehicle: saline, higher T/C = longer survival",10 of 10
same,survivor count,"T/C endpoint: median survival time, dose: 0.12 mg/kg/injection, schedule: Q01DX011 (ip), vehicle: saline, higher T/C = longer survival",8 of 8
same,survivor count,"T/C endpoint: median survival time, dose: 0.2 mg/kg/injection, schedule: Q01DX009 (ip), vehicle: saline, higher T/C = longer survival",10 of 10
same,survivor count,"T/C endpoint: median survival time, dose: 0.2 mg/kg/injection, schedule: Q01DX011 (ip), vehicle: other, higher T/C = longer survival",9 of 10
same,survivor count,"T/C endpoint: median survival time, dose: 0.25 mg/kg/injection, schedule: Q01DX011 (ip), vehicle: saline, higher T/C = longer survival",4 of 8
same,survivor count,"T/C endpoint: median survival time, dose: 0.4 mg/kg/injection, schedule: Q01DX009 (ip), vehicle: saline, higher T/C = longer survival",10 of 10
same,survivor count,"T/C endpoint: median survival time, dose: 0.4 mg/kg/injection, schedule: Q01DX011 (ip), vehicle: other, higher T/C = longer survival",10 of 10
same,survivor count,"T/C endpoint: median survival time, dose: 0.5 mg/kg/injection, schedule: Q01DX009 (ip), vehicle: saline, higher T/C = longer survival",10 of 10
same,survivor count,"T/C endpoint: median survival time, dose: 0.5 mg/kg/injection, schedule: Q01DX011 (ip), vehicle: other, higher T/C = longer survival",10 of 10
same,survivor count,"T/C endpoint: median survival time, dose: 0.8 mg/kg/injection, schedule: Q01DX009 (ip), vehicle: saline, higher T/C = longer survival",10 of 10
same,survivor count,"T/C endpoint: median survival time, dose: 0.8 mg/kg/injection, schedule: Q01DX011 (ip), vehicle: other, higher T/C = longer survival",9 of 10
same,survivor count,"T/C endpoint: median survival time, dose: 1.0 mg/kg/injection, schedule: Q01DX009 (ip), vehicle: saline, higher T/C = longer survival",8 of 10
same,survivor count,"T/C endpoint: median survival time, dose: 1.0 mg/kg/injection, schedule: Q01DX011 (ip), vehicle: other, higher T/C = longer survival",10 of 10
same,survivor count,"T/C endpoint: median survival time, dose: 2.0 mg/kg/injection, schedule: Q01DX009 (ip), vehicle: saline, higher T/C = longer survival",4 of 10
same,survivor count,"T/C endpoint: median survival time, dose: 2.0 mg/kg/injection, schedule: Q01DX011 (ip), vehicle: other, higher T/C = longer survival",10 of 10
same,survivor count,"T/C endpoint: median survival time, dose: 4.0 mg/kg/injection, schedule: Q01DX009 (ip), vehicle: saline, higher T/C = longer survival",0 of 10
same,survivor count,"T/C endpoint: median survival time, dose: 4.0 mg/kg/injection, schedule: Q01DX011 (ip), vehicle: other, higher T/C = longer survival",10 of 10
same,survivor count,"T/C endpoint: median tumor weight (est.), dose: 0.25 mg/kg/injection, schedule: Q01DX011 (ip), vehicle: saline, higher T/C = larger tumour",4 of 8
OCCNC1c2ccccc2-c2ccccc21,survivor count,"T/C endpoint: mean tumor weight (est.), dose: 200.0 mg/kg/injection, schedule: Q01DX011 (ip), vehicle: saline with Tween-80, higher T/C = larger tumour",5 of 8
same,survivor count,"T/C endpoint: median survival time, dose: 25.0 mg/kg/injection, schedule: Q01DX011 (ip), vehicle: saline with Tween-80, higher T/C = longer survival",8 of 8
same,survivor count,"T/C endpoint: median survival time, dose: 100.0 mg/kg/injection, schedule: Q01DX011 (ip), vehicle: saline with Tween-80, higher T/C = longer survival",6 of 8
same,survivor count,[7],5 of 8
